# Results reported in PubChem BioAssay AID1508600 (Functional Genomics Laboratory (NCATS/FGL), 2020).
# About 3,700 (7%) of roughly 53,000 sequences were called active.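 The calls were made as follows: active = gene knockdowns whose robust z-score for IL-1 alpha signal is at least 2 or at most -2, so actives lie on both sides; inactive = the rest.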 The list shows a part of the results.
# Test: Components of the Cytosolic LPS Sensing Pathway: Gene Identification via Genome-wide siRNA Screen;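 also: robust z of the log signal after scaling to non-targeting control siRNA wells of the plate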
# Details: RAW264.7 macrophages, IL-1a HTRF, actives lie on both sides, screened at 100 nM (by protocol), cells primed 5 h with Pam3CSK4 first
# In short: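 IL-1a HTRF of supernatants after 24 hour LipidA transfection of Pam3CSK4-primed (5 hours) RAW264.7 cells, 48h post-siRNA transfection (100 nM). Scores: percent of plate negative-control median, then log-based robust z-score.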
row,Sequence,z-score
1,GGCCAAGAUCACCAUCGUGTT against Cldn3,inactive: 0.181
2,ACCAGAACCAGACGCGUAATT against Cox6b2,inactive: 0.848
3,GGCACCUUUGCCUUGACAUTT against Slc26a7,inactive: 0.135
4,GGUUCUCAGGGUCCUAAACTT against Erv3,inactive: -0.904
5,GGUAGUGGAAUGUGGGAGUTT against 2610044O15Rik8,inactive: 1.16
6,GGAAGUGUGCCUAUUUGUGTT against Pnpla6,inactive: 0.0961
7,CCAUUUGUGUAACACCAAUTT against Eif4h,inactive: -0.408
8,GCAAGUACGCUGCUCUGUCTT against Eif4b,inactive: 0.397
9,GCACAUGUGACUAGAUUUATT against Cetn2,inactive: 0.904
10,GGUGGACAGAUUUAAGCUUTT against Chtf8,inactive: 0.837
11,GGCGAGCUGGACAGAUUUGTT against Nudt6,active: 3.33
12,GGACAAAGUGGCCUUUAUCTT against Decr2,inactive: -0.811
13,GGACUAUCUCAUCGGAACCTT against Tmco1,inactive: 0.824
14,GGCAGCUUAGCUGUUCGUCTT against Socs4,inactive: -0.664
15,GCCAAUCAAAGACAAGCUUTT against Vkorc1l1,inactive: -1.43
16,GCAACCUCCUUCAAACUUGTT against Ebf2,inactive: -0.919
17,CCGUUACCUUCUUAGAAAATT against Rnf150,inactive: 0.448
18,GGACCAUGCACUUAUGACCTT against Syce2,inactive: -1.01
19,GGCCUUAAAGAAACACAAGTT against Hnrnph2,active: 2.3
20,GGGACAUGAAGAAAAUGGATT against Abcf2,inactive: -0.0385
21,CGUGUUGACUUGUAUUUGUTT against Tmem45a,inactive: -0.326
22,GCCAAAGUCUUGCUAUGUGTT against Uba7,inactive: -0.481

row,Sequence,z-score
1,GGUGAUUAAAUACUGCUCATT against Vmn1r35,inactive: -0.26
2,CCACACAACAAAAAAGUUGTT against Zfp663,inactive: -1.12
3,GCGUGUGAGUGUGAAGGAATT against Hcar1,inactive: -1.07
4,GCUAAUGAAGCAGAGCUGUTT against Olfr1359,inactive: 0.388
5,CCAGGAUUGGACUGAUAGUTT against Hoga1,inactive: 0.815
6,CGACAAGGUAUGGAAAGCUTT against Tshz2,inactive: -1.8
7,GGUUAAUGGGAAACUCUGCTT against Pias3,inactive: 0.327
8,GGAAGAUUCAUUCCAAAGATT against A430090L17Rik,inactive: 0.891
9,GCUGAUUGCUUCACCUCAUTT against Sall2,inactive: -0.444
10,GGAACAAAGAGAAGUGCAGTT against Ecm1,inactive: 1.19
11,GGCUGCUGUGAAAUCAGAATT against Shisa7,inactive: -0.0213
12,GCUCAUUGACAGUAUCAGCTT against Shroom2,inactive: 0.433
13,GGGAUAAAGAGAGACCCAATT against Flywch1,inactive: 0.889
14,CGGUAACUAUGCAAAUUCATT against Ckap4,inactive: 1.43
15,GGUGUGCUGAGAAAAAAUATT against Acot10,inactive: 0.847
16,GGGCAUAUUUGGAAUCUGATT against Rtn4,active: 2.51
17,GGUCACCUGGUGUCAAUACTT against Reg2,inactive: -0.968
18,CCCUCAGUUGGUCACAUGUTT against Mpc1,inactive: -0.182
19,CCUGAAUGACAACUAUAUCTT against Glt8d2,inactive: 0.0418
20,CCAUUAUGGGAGGAAGAUUTT against Clvs2,inactive: 0.969
21,CCACCAAUUUGUAAGUAUATT against Lipi,inactive: -0.737
22,CCUCGUAUUAUCAUGUGAATT against Gmppb,inactive: 1.34

row,Sequence,z-score
1,GCUAUGGUAGCUGAUAACATT against Rell1,inactive: 1.21
2,GGAACUUACAUGAAUUCCATT against Slco1a4,inactive: -0.229
3,CCUAGUAGUUGACCAUAUATT against Dcdc5,inactive: -1.32
4,GGGACAACAUGGAUUCAAGTT against Sult1c2,inactive: 0.685
5,GGCUAUUGAUUCCUAUUAGTT against Usp54,inactive: -0.576
6,GGAUUGGUAGCUUAUGUGGTT against Hnrnpr,inactive: -1.91
7,GCAAUGACAGAACAUACAGTT against Cts7,inactive: 1.67
8,GCAAGAAUCCUGGCUAUAUTT against Phb2,inactive: 0.0195
9,GGGUACAAUAUCCUUAAGUTT against Nfxl1,inactive: 0.248
10,GGAGCAGCUUCUGCUUUCUTT against Senp1,inactive: 1.78
11,GGAAGUUCGUUAUUAGGAUTT against Disp2,inactive: -0.452
12,GGAGAUGGUGGAAUUCUCUTT against Atp5a1,inactive: -0.0311
13,GGAUUAUCCCGACUAUAUGTT against Tgds,inactive: 0.139
14,GCGAUUAAGUCUGAAUUGUTT against Cd93,inactive: 0.425
15,GGGAGAUUGCAUUUGGAGCTT against Olfr678,inactive: 0.317
16,GGAGAGAUGUUUAUGAAUATT against Slc6a14,inactive: -0.429
17,CCUUGGAAUUCAUCAACGGTT against Zfp943,inactive: -0.335
18,GGCACACCACUACACCAUCTT against Syk,inactive: -0.96
19,GGAACAGACACAGACACAGTT against Phxr5,inactive: -0.647
20,GGAUAUGGUUGGUCAAAAUTT against Cdh7,inactive: 1.15
21,CCAAGGUUCCAAAACUGAUTT against Pglyrp4,inactive: -0.102
22,GGUUGAGUGUUUGAAGUCATT against Slc38a11,inactive: -1.9

row,Sequence,z-score
1,GCCUGUUGGGUGUUCUUCCTT against Olfr834,inactive: -0.272
2,CCAAUAAGGCAUAUGUUUUTT against Scarb2,inactive: -0.608
3,CCUCUUCGCAUCAACACUGTT against Car10,inactive: -0.186
4,GGUUGGAAAUGACUAAUAATT against Slco6c1,inactive: -1.01
5,GGCCAGGUACUAUACACAUTT against Tmem145,inactive: 0.997
6,CGAACUGCCUUCCUUAAUATT against H1f2,inactive: -1.26
7,GGAGCUCGUUGACAAGAAGTT against Bpifb5,inactive: 1.24
8,GGAAGAACUAACAUUUGAGTT against Myo9a,inactive: -0.289
9,GGUUACAAUCUGAAGUGACTT against 4931429L15Rik,inactive: -1.07
10,GGCUUUAGGAAGAUCCUUGTT against Ilf2,inactive: -0.538
11,GGGUGCAAGGGCACCAAAATT against Wfdc15a,inactive: -0.267
12,GGAGAUCCUAGUGAAUGUGTT against Kcng4,inactive: -0.441
13,GGUGAUGUCUCGGUACCCATT against Mvk,inactive: -0.0733
14,CCAAUAAAAGUGCACACCUTT against Actb,active: 2
15,GGCUCUAUCACUGAGUCACTT against Hsd17b14,inactive: -0.0378
16,GCAUCAUGAGUCCCAUUCUTT against Olfr385,inactive: -0.276
17,GGCAUCUCCAAGAUGUUUCTT against Plekhg4,inactive: -0.205
18,GGCUGAAGAUUUACUUCUATT against Bbs9,inactive: 0.267
19,CCAGAAGAGUACUGUUUUATT against Tpm4,active: 2.17
20,GGACUUAGGAGCCAAAAUUTT against Afg3l1,inactive: 0.677
21,GGCUAUGCUGCCUACUACUTT against Bmp7,active: -2.63
22,GGUAGAAGAGAGUAUCAACTT against Commd1,inactive: 1.28

# Single entries from the results shown.
# Under z-score, GGAAGAACUAACAUUUGAGTT against Myo9a shows inactive: -0.289
# Under z-score, GGGACAACAUGGAUUCAAGTT against Sult1c2 shows inactive: 0.685
# Under z-score, CCAGAAGAGUACUGUUUUATT against Tpm4 shows active: 2.17
# Under z-score, GGUAGUGGAAUGUGGGAGUTT against 2610044O15Rik8 shows inactive: 1.16
# Under z-score, GGCUUUAGGAAGAUCCUUGTT against Ilf2 shows inactive: -0.538

# Additional records

row,Sequence,z-score
1,GGAAAUCCUUACGAUGCUGTT against Coprs,inactive: 1.01
2,GGCUGUGUAAGGAAGGGCUTT against Hjv,inactive: 0.501
3,GGAGUUAAAUUUAGAGAACTT against Shoc2,inactive: -0.043
4,GGUACCUUGCUUUUAUUUUTT against Rdh13,inactive: 0.182
5,GGAAAUUGUUAAGCAGUGUTT against Zc3hav1,inactive: -0.506
6,GGCAUACUCAUGGAAUAACTT against Selp,inactive: -0.244
7,GGAGGGUAUUAGUGCACUGTT against Ptpn1,inactive: -0.111
8,GGAGAAGAAAGUGGAGGCATT against Rplp1,inactive: -0.403
9,GGAUAUGCACAGACCACCCTT against Ewsr1,inactive: -1.38
10,GGGACUAUCCACUCACUUUTT against Olfr981,inactive: 0.419
11,GGCAGAGUUUGAAAAGAUCTT against Parp16,inactive: -1.42
12,GCACUUUUCUAGGAGCAGCTT against Arx,inactive: 1.16
13,GGUGGCAAAACAGUCUGUATT against Olfr1457,inactive: 1.34
14,GGUGCUCAUUGCUGUUUCUTT against Tcaf2,inactive: -1.11
15,CCAUCACGAGUGAAUUCGATT against Olfr945,active: -2.13
16,GGAAGAAAGAAAGAACAGATT against Rgs7bp,inactive: 0.385
17,CCAAGCAGAAAAGUUCCUUTT against Tcf3,inactive: 0.767
18,CCCUAAUCACAUUUUGUGATT against Socs5,inactive: -0.0146
19,GGUUGUUCAGUUCAAACUCTT against Dbt,inactive: 1.35
